Laboratory results published in patent US8455616B2, “Nuclear translocation peptide” (National Center for Global Health and Medicine, priority 2007, dated 2013).
Not every detail of the peptide structures is certain; ends, links or a residue may be inferred. Ends that are not written are not given here.

Tested on: HeLa cells
Experiment: Cellular and nuclear translocation capability of magnetic particles in HeLa cells
Type: cell-based, human
Conditions: peptide-CMDM conjugates, iron 0.7 mg/mL, thymidine-arrested HeLa cells, 18 h exposure, T2 relaxation time by NMR, FIG. 1

Compound | cellular and nuclear translocation capability
CC[C@H](C)[C@H](NC(=O)[C@H](CCCNC(=N)N)NC(=O)[C@H](CO)NC(=O)[C@H](Cc1c[nH]cn1)NC(=O)[C@H](CCCNC(=N)N)NC(=O)[C@H](CS)NC(=O)CNC(=O)[C@@H](NC(=O)[C@H](CCCNC(=N)N)NC(=O)[C@H](Cc1ccccc1)NC(=O)[C@H](Cc1c[nH]cn1)NC(=O)[C@@H](NC(=O)[C@H](Cc1ccccc1)NC(=O)[C@H](CC(C)C)NC(=O)[C@H](CC(C)C)NC(=O)[C@H](CCC(N)=O)NC(=O)[C@H](CCC(N)=O)NC(=O)[C@H](CC(C)C)NC(=O)[C@@H](NC(=O)[C@@H](N)CCCNC(=N)N)[C@@H](C)CC)[C@@H](C)CC)[C@@H](C)CC)C(=O)O [Peptide 1, RILQQLLFIHFRIGCRHSRI] | considerably greater translocation capability than C45D18
RIFIHFRIGC [Peptide 4, R I F I H F R I G C] | high level of translocation capability
